Data published in PMC4941295.
Results are given in words; binding and its absence hold for the method and conditions named. Binding seen in cells or lysates may run through a third protein. Some binding calls cover weakened binding; strength is not graded here. For some assays here: Tags and fused reporters may be left off the sequences shown.

Chains of the proteins cited; added tags and fusions are not shown.
UniProt Q9WV60: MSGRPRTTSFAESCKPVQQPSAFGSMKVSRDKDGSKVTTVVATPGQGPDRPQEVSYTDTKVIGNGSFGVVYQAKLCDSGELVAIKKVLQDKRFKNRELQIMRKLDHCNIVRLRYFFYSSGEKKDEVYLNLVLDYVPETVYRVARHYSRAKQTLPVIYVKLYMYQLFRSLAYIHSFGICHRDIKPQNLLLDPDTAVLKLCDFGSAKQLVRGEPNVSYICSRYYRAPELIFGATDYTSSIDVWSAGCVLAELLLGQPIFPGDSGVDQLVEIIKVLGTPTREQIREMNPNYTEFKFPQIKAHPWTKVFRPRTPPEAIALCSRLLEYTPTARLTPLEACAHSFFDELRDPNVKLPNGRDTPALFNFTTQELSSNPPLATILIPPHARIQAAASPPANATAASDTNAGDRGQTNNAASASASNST
UniProt P49841: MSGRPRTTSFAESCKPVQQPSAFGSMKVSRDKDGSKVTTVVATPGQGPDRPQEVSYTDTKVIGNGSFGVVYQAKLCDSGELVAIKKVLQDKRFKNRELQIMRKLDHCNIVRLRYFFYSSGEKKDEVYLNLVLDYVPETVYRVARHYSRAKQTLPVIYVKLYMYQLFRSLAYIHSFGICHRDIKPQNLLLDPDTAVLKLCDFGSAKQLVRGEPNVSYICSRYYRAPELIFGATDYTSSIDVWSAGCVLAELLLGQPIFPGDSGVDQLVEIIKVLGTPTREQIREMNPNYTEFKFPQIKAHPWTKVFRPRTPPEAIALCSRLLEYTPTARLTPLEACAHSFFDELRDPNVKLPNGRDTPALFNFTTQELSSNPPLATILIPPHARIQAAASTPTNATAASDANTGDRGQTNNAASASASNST

Columns and labels:
[1] = target: GSK-3β, endogenous (mouse (endogenous in MC38 and CT26)) (UniProt Q9WV60); test: co-IP; endogenous proteins; lysates from MC38 and CT26 immunoprecipitated with 1 ug of mouse anti-STRAP or rabbit anti-GSK-3β antibody or corresponding IgG (negative control); detection by western blotting
Myc-tagged GSK-3β = Myc-tagged GSK-3β (UniProt P49841); test: co-IP; 293T cells transfected with β-catenin-HA, GSK-3β-myc and different doses of STRAP-Flag plasmids; harvested after 48 h; lysates immunoprecipitated with c-myc antibody, bound β-catenin detected by western blotting with anti-HA antibody

| Binder | binding [1] | binding (Myc-tagged GSK-3β) |
| --- | --- | --- |
| Serine-Threonine Kinase Receptor-Associated Protein (STRAP), endogenous (protein, UniProt Q9Z1Z2 1-350) MAMRQTPLTCSGHTRPVVDLAFSGITPYGYFLISACKDGKPMLRQGDTGDWIGTFLGHKGAVWGATLNKDATKAATAAADFTAKVWDAVSGDELMTLAHKHIVKTVDFTQDSNYLLTGGQDKLLRIYDLNKPEAEPKEISGHTSGIKKALWCSDDKQILSADDKTVRLWDHATMTEVKSLNFNMSVSSMEYIPEGEILVITYGRSIAFHSAVSLEPIKSFEAPATINSASLHPEKEFLVAGGEDFKLYKYDYNSGEELESYKGHFGPIHCVRFSPDGELYASGSEDGTLRLWQTVVGKTYGLWKCVLPEEDSGELAKPKIGFPETAEEELEEIASENSDSIYSSTPEVKA | binds | – |
| Flag-tagged STRAP (protein, UniProt Q9Z1Z2 1-350) MAMRQTPLTCSGHTRPVVDLAFSGITPYGYFLISACKDGKPMLRQGDTGDWIGTFLGHKGAVWGATLNKDATKAATAAADFTAKVWDAVSGDELMTLAHKHIVKTVDFTQDSNYLLTGGQDKLLRIYDLNKPEAEPKEISGHTSGIKKALWCSDDKQILSADDKTVRLWDHATMTEVKSLNFNMSVSSMEYIPEGEILVITYGRSIAFHSAVSLEPIKSFEAPATINSASLHPEKEFLVAGGEDFKLYKYDYNSGEELESYKGHFGPIHCVRFSPDGELYASGSEDGTLRLWQTVVGKTYGLWKCVLPEEDSGELAKPKIGFPETAEEELEEIASENSDSIYSSTPEVKA | – | binds |
